# From the supplement of paper PMC11732987, “Enantioselective OTUD7B fragment discovery through chemoproteomics screening and high-throughput optimisation” (Communications Chemistry, 2025)
# The list shows a part of the results. The data scatter; read single values as rough.
# Compound: ClCC(=O)N[C@H]1CCCc2ccccc12
# Assay: log2 mean competition ratio of IA-DTB cysteine labelling (DMSO/compound) (log2 ratio); higher = stronger cysteine engagement by compound
# Conditions: 200 µM; treatment time: 4 h; cell line lysate: HEK293T
# Method: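 IA-DTB competitive cysteine chemoproteomics in HEK293T RIPA lysate. Lysates were treated with compound 29 or 30 at 50 or 200 µM for 4 h, then IA-DTB (500 µM, 1 h), trypsin-digested, NeutrAvidin-enriched and analysed by diaPASEF. Competition ratio = intensity DMSO / intensity compound (n=4 treated, n=64 DMSO); binding: mean log2 CR ≥ 1 and p ≤ 0.05 plus QC filters. Target is the cysteine site.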
row,Target,log2 mean competition ratio
1,CYFIP2 C423 (UniProt Q96F07),-0.497
2,CTPS1 C299 (UniProt P17812),-0.149
3,CTTNBP2NL C352 (UniProt Q9P2B4),0.0989
4,CSRP2 C167 (UniProt Q16527),-0.079
5,CTC1 C837 (UniProt Q2NKJ3),-0.0345
6,CRTAP C317 (UniProt O75718),0.0803
7,CWF19L1 C160 (UniProt Q69YN2),-0.0211
8,DCK C45 (UniProt P27707),0.527
9,CRBN C310 (UniProt Q96SW2),0.0935

# Reformatted: results already given
row | Target | log2 mean competition ratio
3 | CTTNBP2NL C352 (UniProt Q9P2B4) | 0.0989
7 | CWF19L1 C160 (UniProt Q69YN2) | -0.0211
